mCherry and percent effect data for six compounds are collected here from the supplement of paper PMC8256030.

“And” between values parts separate entries of the source, which are not always exact repeats. Identical values can stand only once. This is one part of the list. Single values are uncertain here, since repeats match poorly.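 HEK293T cells were given each compound shortly before transfection with a reporter in which red mCherry is followed by the SARS-CoV-2 frameshift element and then GFP in the −1 frame, so GFP appears only after frameshifting.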

For assay [1], the system named is SARS-CoV-2 -1 PRF reporter mCherry-FSE-GFP(-1). Briefly: mCherry (red) intensity as percent of control; higher = higher upstream reporter expression. As to conditions: 10 µM; 24 h; HEK293T.
The test system is the same in assay [2]. Briefly: percent effect, decrease of GFP/mCherry ratio (-1 PRF reporter) relative to controls; higher = stronger frameshift inhibition. As to conditions: 10 µM; 24 h; HEK293T.

On to `CO/N=C(\C(=O)N[C@@H]1C(=O)N2C(C(=O)[O-])=C(C[n+]3ccn4ncccc43)CS[C@H]12)c1nsc(N)n1` [cefozopran], for which the mCherry in assay [1] came to 104%. The percent effect in assay [2] is -2%.
As for `O=C(O)c1cc(-c2ccc(F)cc2F)ccc1O` [diflunisal], the mCherry in assay [1] is 98.3% and 78.4%. In addition, the percent effect in assay [2] is -2.83% and -8.8%.
In assay [1], `CN[C@H]1C(=O)N[C@@H]2Cc3ccc(cc3)Oc3cc4cc(c3O[C@@H]3O[C@H](C(=O)O)[C@@H](O)[C@H](O)[C@H]3NC(=O)CCCCCCCCC(C)C)Oc3ccc(cc3Cl)[C@@H](O)[C@@H]3NC(=O)[C@H](NC(=O)[C@@H]4NC(=O)[C@@H](NC2=O)c2cc(cc(O)c2Cl)Oc2cc1ccc2O)c1ccc(O)c(c1)-c1c(O[C@H]2O[C@H](CO)[C@@H](O)[C@H](O)[C@@H]2O)cc(O)cc1[C@@H](C(=O)NCCCN(C)C)NC3=O` [Dalbavancin] registered a mCherry of 86.8%. In assay [2], the percent effect is -1.2%.
For `CN1CCN(C2=Nc3ccccc3Sc3ccc(Cl)cc32)CC1` [clotiapine], in that order: 87.9% and -0.0575%.
For `CN1N=C2CCN(C(=O)[C@@H](COCc3ccccc3)NC(=O)C(C)(C)N)C[C@@]2(Cc2ccccc2)C1=O` [capromorelin], in that order: 83.9% and -2.36%.
For `CCC[C@H](N[C@@H](C)C(=O)N1[C@H](C(=O)O)C[C@@H]2CCCC[C@@H]21)C(=O)O` [perindoprilat], in that order: 97.7% and -3%.
